These are yes or no findings as the source states them, for the method shown. Binding calls can cover weak binding; strength is not graded here.

Drawing on US20110212105A1, this text covers binding for one molecule.

The target in this assay is α-chain of the A2MR receptor purified from human plasma (soluble A2MR) (human). Briefly: affinity chromatography of plasma fractions on immobilized MeNH2_A2M; washed with 0.5 M NaCl, A2MR eluted with EDTA at pH 6.

B1: human alpha-2 macroglobulin activated by methylamine treatment (ligand)
chain: SVSGKPQYMVLVPSLLHTETTEKGCVLLSYLNETVTVSASLESVRGNRSLFTDLEAENDVLHCVAFAVPKSSSNEEVMFLTVQVKGPTQEFKKRTTVMVKNEDSLVFVQTDKSIYKPGQTVKFRVVSMDENFHPLNELIPLVYIQDPKGNRIAQWQSFQLEGGLKQFSFPLSSEPFQGSYKVVVQKKSGGRTEHPFTVEEFVLPKFEVQVTVPKIITILEEEMNVSVCGLYTYGKPVPGHVTVSICRKYSDASDCHGEDSQAFCEKFSGQLNSHGCFYQQVKTKVFQLKRKEYEMKLHTEAQIQEEGTVVELTGRQSSEITRTITKLSFVKVDSHFRQGIPFFGQVRLVDGKGVPIPNKVIFIRGNEANYYSNATTDEHGLVQFSINTTNVMGTSLTVRVNYKDRSPCYGYQWVSEEHEEAHHTAYLVFSPSKSFVHLEPMSHELPCGHTQTVQAHYILNGGTLLGLKKLSFYYLIMAKGGIVRTGTHGLLVKQEDMKGHFSISIPVKSDIAPVARLLIYAVLPTGDVIGDSAKYDVENCLANKVDLSFSPSQSLPASHAHLRVTAAPQSVCALRAVDQSVLLMKPDAELSASSVYNLLPEKDLTGFPGPLNDQDDEDCINRHNVYINGITYTPVSSTNEKDMYSFLEDMGLKAFTNSKIRKPKMCPQLQQYEMHGPEGLRVGFYESDVMGRGHARLVHVEEPHTETVRKYFPETWIWDLVVVNSAGVAEVGVTVPDTITEWKAGAFCLSEDAGLGISSTASLRAFQPFFVELTMPYSVIRGEAFTLKATVLNYLPKCIRVSVQLEASPAFLAVPVEKEQAPHCICANGRQTVSWAVTPKSLGNVNFTVSAEALESQELCGTEVPSVPEHGRKDTVIKPLLVEPEGLEKETTFNSLLCPSGGEVSEELSLKLPPNVVEESARASVSVLGDILGSAMQNTQNLLQMPYGCGEQNMVLFAPNIYVLDYLNETQQLTPEVKSKAIGYLNTGYQRQLNYKHYDGSYSTFGERYGRNQGNTWLTAFVLKTFAQARAYIFIDEAHITQALIWLSQRQKDNGCFRSSGSLLNNAIKGGVEDEVTLSAYITIALLEIPLTVTHPVVRNALFCLESAWKTAQEGDHGSHVYTKALLAYAFALAGNQDKRKEVLKSLNEEAVKKDNSVHWERPQKPKAPVGHFYEPQAPSAEVEMTSYVLLAYLTAQPAPTSEDLTSATNIVKWITKQQNAQGGFSSTQDTVVALHALSKYGAATFTRTGKAAQVTIQSSGTFSSKFQVDNNNRLLLQQVSLPELPGEYSMKVTGEGCVYLQTSLKYNILPEKEEFPFALGVQTLPQTCDEPKAHTSFQISLSVSYTGSRSASNMAIVDVKMVSGFIPLKPTVKMLERSNHVSRTEVSSNHVLIYLDKVSNQTLSLFFTVLQDVPVRDLKPAIVKVYDYYETDEFAIAEYNAPCSKDLGNA
As to B1, the binding entry is “binds”.
